PubChem BioAssay AID504808 – Drosophila RNAi Screening Center | 2011
The deposit covers about 21,000 reagents; this is a random part of those with a known target gene and a result. In the full data, 18 (0.084%) got an active call. 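Raw counts without plate normalisation, one of two replicates; the ratio scores behind the calls were not deposited.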 Unmarked entries are inactive. Reagents against one gene are numbered here. A plus sign joins genes that one reagent is predicted to hit. Reagent sequences are not shown. Not given: the amount of reagent, the time to read-out.

- Screen: 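Genes whose loss lifts activity of an E2F-responsive reporter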 (primary screen)
- Cell system: Drosophila S2 cells
- Reagent: long dsRNA against Drosophila genes
- Measured: 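Dual luciferase plate measurements; E2F-specific signal taken as firefly over Renilla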
- Direction: E2F firefly: higher = more E2F reporter activity; Renilla normaliser: higher = more normaliser reporter signal
- Hit rule: 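a knock-down counted as active when the firefly/Renilla E2F signal rose above 50%, a threshold chosen arbitrarily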

E2F firefly, rep 1 | Renilla normaliser, rep 1 | Target gene | reagent
1.26e5 | 6452 | MED18 (Mediator complex subunit 18) | 1
1.22e5 | 4732 | CG34231 | 1
1.24e5 | 6126 | m-cup (mann-cup) | 1
1.40e5 | 7007 | CG34167 | 1
1.45e5 | 7076 | GstD3 (Glutathione S transferase D3) | 1
1.27e5 | 6606 | ksh (kish) | 1
1.15e5 | 4479 | CG34007 | 1
78755 | 2484 | CG3847 | 1
8480 | 616 | CG3847 | 2
1.13e5 | 5589 | Nepl20 (Neprilysin-like 20) | 1
1.37e5 | 7196 | CG15536 | 1
1.40e5 | 5191 | CG13130 (retired record) | 1
1.03e5 | 3941 | GluRIA (Glutamate receptor IA) | 1
1.32e5 | 7426 | Cyp6v1 (Cytochrome P450 6v1) | 1
1.05e5 | 4476 | Eglp4 (Entomoglyceroporin 4) | 1
1.07e5 | 5481 | CG17141 | 1
1.62e5 | 8319 | kud (kuduk) | 1
1.23e5 | 7397 | CG3021 | 1
1.19e5 | 5823 | CG3021 | 2
86702 | 2032 | unc-13 | 1
77945 | 2092 | unc-13 | 2
1718 | 884 | unc-13 | 3
80591 | 4249 | dbe (dribble) | 1
1.60e5 | 6406 | CG4613 | 1
50541 | 4821 | Spx (Spliceosomal protein on the X) | 1
93027 | 2556 | mRpS21 (mitochondrial ribosomal protein S21) | 1
1.35e5 | 5541 | CG2278 | 1
1.29e5 | 4545 | CG14483 | 1
1.48e5 | 4491 | CG12824 | 1
1.44e5 | 4935 | CG14071 | 1
92924 | 3674 | Pect (Phosphoethanolamine cytidylyltransferase) | 1
94581 | 4423 | Pect (Phosphoethanolamine cytidylyltransferase) | 2
1.39e5 | 4297 | fwe (flower) | 1
76907 | 4045 | fwe (flower) | 2
1.60e5 | 6406 | CG42323 | 1
3002 | 227 | nito (spenito) | 1
7775 | 764 | Rab18 | 1
68534 | 3468 | HipHop (HP1-HOAP-interacting protein) | 1
1.43e5 | 4976 | CG15614 | 1
1.27e5 | 4267 | CG42673 | 1
87924 | 2725 | CG42673 | 2
1.22e5 | 7062 | CG42673 | 3
1.28e5 | 7168 | CG42673 | 4
45843 | 284 | CG42673 | 5
76582 | 4201 | CG42673 | 6
84477 | 4200 | Pld (Phospholipase D) | 1
72644 | 3501 | igl (igloo) | 1
78796 | 3728 | Gk2 (Glycerol kinase 2) | 1
93490 | 4240 | CG15005 | 1
1.24e5 | 6355 | CG14797 | 1
1.58e5 | 5493 | wun2 (wunen-2) | 1
1632 | 968 | eIF2Bepsilon (eukaryotic translation initiation factor 2B subunit epsilon) | 1
98773 | 4142 | NimC1 (Nimrod C1) | 1
93535 | 4152 | robl62A | 1
53353 | 3510 | Rpt5 (Regulatory particle triple-A ATPase 5) | 1
1.21e5 | 4416 | CG10384 | 1
86049 | 3897 | CG10384 | 2
1.14e5 | 5299 | Trf4-1 (Topoisomerase related function 4-1) | 1
1.53e5 | 5819 | Taf10b + Taf10 | 1
1.31e5 | 5996 | krz (kurtz) | 1
7631 | 736 | CG10970 | 1
1.51e5 | 5713 | abo (abnormal oocyte) | 1
1.40e5 | 5351 | dnr1 (defense repressor 1) | 1
1.09e5 | 4841 | dnr1 (defense repressor 1) | 2
1.52e5 | 5001 | Syn2 (Syntrophin-like 2) | 1
7176 | 636 | CG32631 | 1
94954 | 3916 | nrm (neuromusculin) | 1
1.04e5 | 4013 | nrm (neuromusculin) | 2
1.45e5 | 7360 | nrm (neuromusculin) | 3
1.26e5 | 4595 | Smurf (SMAD specific E3 ubiquitin protein ligase) | 1
1.45e5 | 4806 | CG34458 | 1
1.01e5 | 4609 | CG34396 | 1
1.01e5 | 3742 | CG34396 | 2
74122 | 2661 | CG42262 (retired record) | 1
1.29e5 | 6065 | CG42262 (retired record) | 2
1.28e5 | 5627 | btv (beethoven) | 1
1.00e5 | 4462 | btv (beethoven) | 2
1.32e5 | 7316 | Cpr92A (Cuticular protein 92A) | 1
66323 | 3225 | CG5026 | 1
1.38e5 | 6249 | CG5853 | 1
76538 | 3088 | CG5853 | 2
1.27e5 | 7703 | Pdi (Protein disulfide isomerase) | 1
89873 | 4047 | CG9932 | 1
1.36e5 | 6114 | CG8132 | 1

Records listed so far whose gene name begins with F or f:
E2F firefly, rep 1 | Renilla normaliser, rep 1 | Target gene | reagent
1.39e5 | 4297 | fwe (flower) | 1
76907 | 4045 | fwe (flower) | 2
